The values that follow come from the supplement of paper PMC9135407.

This experiment has as its system primary human hepatic stellate cells (donor 1). As to the kind of experiment: percent Bodipy-positive cells; higher = more lipid droplet accumulation. The following applies: 48 h. The method, then: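 Primary lipid accumulation screen in primary human hepatic stellate cell myofibroblasts (donor 1, passage 8) in 384-well plates. 100 nL of library compound was pin-transferred into 30 µL medium in duplicate, and cells were treated for 48 h. The 'Scaled' score combines distance from plate baseline, toxicity and reproducibility penalties, and is normalised to nortriptyline (positive) and DMSO (negative) controls on each plate. A hit is defined as scaled >0.85 or among the top 3 wells per plate.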

[1] abbreviates: library stock concentration: 10 mM.
Where [2] appears, read: library stock concentration: 3.33 mM.
The mark [3] stands for this setting: library stock concentration: 80 uM.
The mark [4] stands for this setting: library stock concentration: 400 uM.
The mark [5] stands for this setting: library stock concentration: 1 mM.
[6] abbreviates: library stock concentration: 2 mM.

Several values for one entry are separate records, joined by “and”; a condition that tells them apart may be missing. Identical values can stand only once. Counter-ions that a name gives are not always drawn. ± gives the standard deviation of the averaged measurements. The list shows a part of the results. Baselines shift from plate to plate; read single values as rough.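 Assay uses culture-activated primary human stellate myofibroblasts; lipid droplet recovery indicates inactivation. Measured: proportion of Hoechst-counted cells over a plate-specific Bodipy cutoff, duplicate wells, DMSO and nortriptyline as per-plate negative and positive controls. A hit scores, control-normalized, above the plate's top-tenth-percentile nortriptyline wells or ranks among its three best wells. Final well concentrations not reported.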

As to `CN(C)C/C=C(/c1ccc(Br)cc1)c1cccnc1` [Zimelidine dihydrochloride], the “percent Bodipy-positive cells” value runs as follows: (library stock concentration: 5.1 mM) 45.5 ± 6.7%; under setting [1], 52.4 ± 7.7%.
`CCOc1ccc2ccccc2c1C(=O)N[C@@H]1C(=O)N2[C@@H]1SC(C)(C)[C@@H]2C(=O)O`: the “percent Bodipy-positive cells” value under setting [1] was 30.4 ± 0.61%.
With `CCOc1ccc2ccccc2c1C(=O)N[C@@H]1C(=O)N2[C@@H]1SC(C)(C)[C@@H]2C(=O)O` [Nafcillin Sodium], the “percent Bodipy-positive cells” value by setting is: under setting [2], 7.91 ± 3.7%; under setting [1], 28.1 ± 25%.
As for `CCOc1ccc2ccccc2c1C(=O)N[C@@H]1C(=O)N2[C@@H]1SC(C)(C)[C@@H]2C(=O)O` [Nafcillin sodium salt monohydrate], the “percent Bodipy-positive cells” value amounted to 10.2 ± 1.2%.
Turning to `CCOc1ccc2ccccc2c1C(=O)N[C@@H]1C(=O)N2[C@@H]1SC(C)(C)[C@@H]2C(=O)O` [Nafcillin sodium], under setting [1], the “percent Bodipy-positive cells” value amounted to 9.08 ± 0.96%.
As to `C[S+]([O-])c1ccc(-c2nc(-c3ccc(F)cc3)c(-c3ccncc3)[nH]2)cc1` (stereo not drawn), the “percent Bodipy-positive cells” value reads like this: under setting [3], 15.4 ± 0.57%; under setting [4], 19.2% and 32.2%; under setting [5], 15 ± 0.4%; under setting [6], 16% and 26.3%; under setting [2], 11.1% and 12.5%; (library stock concentration: 13.2 mM) 20.4 ± 7.4%.
Consider `Cc1ccc(NC2=CC(=O)c3sc(C)nc3C2=O)cc1` [Cdk4 Inhibitor III], for which the “percent Bodipy-positive cells” value under setting [2] turned out to be 94.8 ± 1.2%.
Turning to `CS(=O)(=O)c1ccc(-c2cnc(N)c(C(=O)Nc3ccccc3)n2)cc1`, under setting [1], the “percent Bodipy-positive cells” value worked out at 91.7 ± 3.8%.
Regarding `COc1cc2c(Oc3ccc(NC(=O)C4(C(=O)Nc5ccc(F)cc5)CC4)cc3F)ccnc2cc1OCCCN1CCOCC1`, the “percent Bodipy-positive cells” value is, setting by setting: under setting [3], 59.2 ± 5.8%; under setting [4], 59 ± 6.7%; under setting [6], 75.9 ± 0.23%; under setting [1], 99.3% and 99.5%.
In the case of `COc1cc(N2CCC(N(C)C)CC2)ccc1Nc1ncc(Cl)c(Nc2ccccc2P(C)(C)=O)n1`, the “percent Bodipy-positive cells” value was 7.34 ± 0.87% under setting [3], 15.4 ± 3% under setting [4], 31.4 ± 11% under setting [6] and 74.8 ± 14% under setting [2].
As for `OCc1cccnc1` [Nicotinyl alcohol tartrate], the “percent Bodipy-positive cells” value (library stock concentration: 7.7 mM) came to 18 ± 1% and the “percent Bodipy-positive cells” value under setting [1] was found to be 29.2 ± 2.2%.
For `OCc1cccnc1`, under setting [1], the “percent Bodipy-positive cells” value was 10.1 ± 3.5%.
Regarding `Nc1ccccc1S(N)(=O)=O` [2-Aminobenzenesulfonamide], the “percent Bodipy-positive cells” value came to 7.97 ± 1.3%.
As for `COc1ccccc1Oc1c(NS(=O)(=O)c2ccc(C(C)(C)C)cc2)nc(-c2ncccn2)nc1OCCO` [Bosentan Hydrate], the “percent Bodipy-positive cells” value reads like this: under setting [2], 6.66 ± 0.65%; under setting [1], 13.9 ± 8.6%.
With `COc1ccccc1Oc1c(NS(=O)(=O)c2ccc(C(C)(C)C)cc2)nc(-c2ncccn2)nc1OCCO` [Bosentan], the “percent Bodipy-positive cells” value was 10.2 ± 0.73% under setting [2], 6.91 ± 2.4% (library stock concentration: 3.6 mM) and 31.7 ± 11% under setting [1].
On to `CCCCCCCCCCCCCCC(=O)N[C@H]1CCOC1=O` [N-pentadecanoyl-L-Homoserine lactone], for which the “percent Bodipy-positive cells” value under setting [5] turned out to be 14.1 ± 3.9%.
`CC1=C(/C=C/C(C)=C/C=C/C(C)=C/C=C/C=C(C)/C=C/C=C(C)/C=C/C2=C(C)C(=O)CCC2(C)C)C(C)(C)CCC1=O` [Canthaxanthin]: the “percent Bodipy-positive cells” value (library stock concentration: 3.5 mM) is 82.5 ± 7%.
Regarding `CN(C)CCC=C1c2ccccc2COc2ccccc21` [Doxepin hydrochloride], the “percent Bodipy-positive cells” value came out at 61.2 ± 3.1%.
Regarding `CN(C)CCC=C1c2ccccc2COc2ccccc21` [Doxepin], the “percent Bodipy-positive cells” value under setting [1] came out at 65.9 ± 5.6%.
Turning to `CC(C)[N+](C)(CCOC(=O)C1c2ccccc2Oc2ccccc21)C(C)C` [Propantheline bromide], the “percent Bodipy-positive cells” value amounted to 12.5 ± 1.6%. For the same molecule, the “percent Bodipy-positive cells” value (library stock concentration: 4.5 mM) came to 12.65 ± 0.12%. The “percent Bodipy-positive cells” value under setting [1] is 14.3% and 20.6%.
In the case of `CC(C)[N+](C)(CCOC(=O)C1c2ccccc2Oc2ccccc21)C(C)C` [Pro-Banthine], the “percent Bodipy-positive cells” value under setting [1] worked out at 38 ± 1.1%.
In the case of `CN1CCC[C@@H]1Cc1c[nH]c2ccc(CCS(=O)(=O)c3ccccc3)cc12` [Eletriptan HBr], the “percent Bodipy-positive cells” value runs as follows: under setting [2], 45.9 ± 3.2%; under setting [1], 44.7 ± 11%.
For the molecule `CN1CCC[C@@H]1Cc1c[nH]c2ccc(CCS(=O)(=O)c3ccccc3)cc12` [Eletriptan hydrobromide], under setting [1], the “percent Bodipy-positive cells” value amounted to 40 ± 4.2%.
Consider `CCCCC[C@@](C)(O)/C=C/[C@H]1C=CC(=O)[C@@H]1C/C=C\CCCC(=O)O` [15(R)-15-methyl Prostaglandin A2], for which, under setting [5], the “percent Bodipy-positive cells” value stood at 12 ± 6.5%.
Consider `O=C(O)Cc1c[nH]c2ccc(O)cc12` [5-Hydroxyindolacetic acid], for which the “percent Bodipy-positive cells” value under setting [1] came out at 36.6 ± 5.5%.
For the molecule `CCCCC[C@H](O)CC[C@@H]1[C@@H](C/C=C\CCCC(=O)O)[C@@H](O)C[C@H]1O` [13,14-dihydro Prostaglandin F2.alpha.], the “percent Bodipy-positive cells” value under setting [5] was determined as 13.2 ± 4.4%.
With `N=C(N)SCCC[C@H](N)C(=O)O` [Thioarginine (hydrobromide)], the “percent Bodipy-positive cells” value under setting [5] was 8.69 ± 1.2%.
For the molecule `Cc1cccc(C)c1OCC(C)N` (stereo not drawn) [Mexiletine HCl], the “percent Bodipy-positive cells” value by setting is: under setting [2], 14.2 ± 0.28%; under setting [1], 51 ± 0.88%.
For the molecule `Cc1cccc(C)c1OCC(C)N` (stereo not drawn) [Mexiletine hydrochloride], the “percent Bodipy-positive cells” value is 56.7 ± 4.2%. In addition, the “percent Bodipy-positive cells” value (library stock concentration: 9.3 mM) worked out at 28.3 ± 5.6%. Moreover, the “percent Bodipy-positive cells” value under setting [1] amounted to 26 ± 6.3%.
On to `Cc1cccc(C)c1OCC(C)N` (stereo not drawn) [Mexiletene hydrochloride], for which the “percent Bodipy-positive cells” value under setting [1] is 80.1 ± 5.4%.
For the molecule `CN1[C@@H]2CC[C@H]1C[C@@H](OC(=O)c1c[nH]c3ccccc13)C2` [Tropisetron], the “percent Bodipy-positive cells” value reads like this: under setting [2], 54.3 ± 5%; under setting [1], 44.8 ± 0.67%.
As to `CN1[C@@H]2CC[C@H]1C[C@@H](OC(=O)c1c[nH]c3ccccc13)C2` [Tropisetron HCl], the “percent Bodipy-positive cells” value came out at 67 ± 8.4%. For the same molecule, the “percent Bodipy-positive cells” value (library stock concentration: 7 mM) worked out at 30.1 ± 1.8%.
On to `CN1[C@@H]2CC[C@H]1C[C@@H](OC(=O)c1c[nH]c3ccccc13)C2` [Tropisetron hydrochloride], for which, under setting [1], the “percent Bodipy-positive cells” value came out at 24.8 ± 12%.
